In the supplement of paper PMC12282887:
± gives the standard deviation of the averaged measurements. These are raw signals, not scaled to a control.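 For antimicrobials the highest concentration approximated the MIC. Most other compounds topped out at 500 µM, and known inducer-like compounds reached up to 1 mM. Inocula for deletion strains were tenfold smaller, and any well growing below 10% of the overall median was considered non-growing.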

Test system: Escherichia coli BW25113
Assay: growth (OD600 area under curve, 8 h) (OD600 x h); higher = more growth
Description: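 E. coli BW25113 reporter strains (wild type, ΔmarA, ΔsoxS, Δrob, each carrying one of 8 lux reporter plasmids) were grown in 40 µl LB in 384-well plates at 37°C, 800 rpm, with each compound at 4 two-fold concentrations, in biological duplicates. Growth is the baseline-corrected OD600 area under the curve over 8 h (0-8 h WT, 1-9 h deletion strains).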

NC(=O)c1cc[n+](CC2=C(C(=O)[O-])N3C(=O)[C@@H](NC(=O)[C@@H](c4ccccc4)S(=O)(=O)O)[C@H]3SC2)cc1 [Cefsulodin]
growth
Conditions	reporter plasmid: EVC	reporter plasmid: acrABp	reporter plasmid: marRABp	reporter plasmid: micFp	reporter plasmid: ompFp	reporter plasmid: robp	reporter plasmid: soxSp	reporter plasmid: tolCp
1.7 µg/ml, genetic background: wild type	3.29 ± 0.11	3.12 ± 0.18	3.31 ± 0.22	3 ± 0.24	3.17 ± 0.11	3.32 ± 0.15	3.06 ± 0.095	3.14 ± 0.046
1.7 µg/ml, genetic background: ΔmarA	2.93 ± 0.036	3.76 ± 0.066	3.45 ± 0.15	3.37 ± 0.66	3.3 ± 0.97	3.82 ± 0.64	2.97 ± 0.097	3.076 ± 0.03
1.7 µg/ml, genetic background: Δrob	3.097 ± 0.0031	3.26 ± 0.072	3.37 ± 0.12	2.93 ± 0.35	2.84 ± 0.5	2.97 ± 0.036	2.74 ± 0.35	3.17 ± 0.1
1.7 µg/ml, genetic background: ΔsoxS	3.28 ± 0.43	3.4 ± 0.46	3.36 ± 0.63	3.11 ± 0.043	3.3 ± 0.32	3.39 ± 0.4	3.23 ± 0.18	3.2 ± 0.21
3.5 µg/ml, genetic background: wild type	2.99 ± 0.033	3.21 ± 0.39	3.35 ± 0.17	2.83 ± 0.28	3.0482 ± 0.0015	3.331 ± 0.023	3.002 ± 0.017	3.084 ± 0.029
3.5 µg/ml, genetic background: ΔmarA	2.83 ± 0.054	3.77 ± 0.044	3.42 ± 0.16	3.27 ± 0.61	3.22 ± 1.2	3.87 ± 0.47	2.832 ± 0.026	3.08 ± 0.23
3.5 µg/ml, genetic background: Δrob	2.96 ± 0.22	2.96 ± 0.22	3.3 ± 0.35	2.772 ± 0.021	2.61 ± 0.43	2.77 ± 0.36	2.46 ± 0.41	3.01 ± 0.069
3.5 µg/ml, genetic background: ΔsoxS	3.11 ± 0.43	3.22 ± 0.26	3.04 ± 0.6	3.01 ± 0.12	3.15 ± 0.19	3.17 ± 0.26	3.09 ± 0.17	3.09 ± 0.15
6.9 µg/ml, genetic background: wild type	3.14 ± 0.059	3.33 ± 0.29	3.37 ± 0.17	2.84 ± 0.29	3.247 ± 0.019	3.366 ± 0.016	2.74 ± 0.2	2.84 ± 0.19
6.9 µg/ml, genetic background: ΔmarA	2.87 ± 0.23	3.67 ± 0.096	3.32 ± 0.21	3.34 ± 0.69	3.41 ± 0.85	3.87 ± 0.8	2.73 ± 0.27	2.99 ± 0.067
6.9 µg/ml, genetic background: Δrob	3.04 ± 0.36	3.37 ± 0.04	3.39 ± 0.15	2.8 ± 0.31	2.89 ± 0.4	2.98 ± 0.084	2.54 ± 0.39	2.9 ± 0.28
6.9 µg/ml, genetic background: ΔsoxS	3.04 ± 0.54	3.48 ± 0.57	3.36 ± 0.75	2.97 ± 0.075	3.49 ± 0.24	3.39 ± 0.23	2.94 ± 0.71	2.9 ± 0.18
13.9 µg/ml, genetic background: wild type	2.68 ± 0.21	2.05 ± 0.26	2.04 ± 0.72	2.18 ± 0.035	1.15 ± 0.017	1.99 ± 0.096	2.22 ± 0.077	2.747 ± 0.0063
13.9 µg/ml, genetic background: ΔmarA	2.63 ± 0.24	2.35 ± 0.25	2.14 ± 0.051	2.62 ± 0.63	1.21 ± 0.42	2.73 ± 1.5	2.09 ± 0.088	2.44 ± 0.45
13.9 µg/ml, genetic background: Δrob	2.751 ± 0.027	1.97 ± 0.071	2.44 ± 0.4	2.302 ± 0.017	1.68 ± 0.47	1.07 ± 0.15	2.03 ± 0.17	2.789 ± 0.003
13.9 µg/ml, genetic background: ΔsoxS	2.8 ± 0.19	2.32 ± 0.18	2.38 ± 0.65	2.46 ± 0.075	0.674 ± 0.17	1.69 ± 0.78	2.42 ± 0.039	2.859 ± 0.021

O=C(N[C@H](CO)[C@H](O)c1ccc([N+](=O)[O-])cc1)C(Cl)Cl [Chloramphenicol]
growth
Conditions	reporter plasmid: EVC	reporter plasmid: acrABp	reporter plasmid: marRABp	reporter plasmid: micFp	reporter plasmid: ompFp	reporter plasmid: robp	reporter plasmid: soxSp	reporter plasmid: tolCp
0.12 µg/ml, genetic background: wild type	2.683 ± 0.013	2.71 ± 0.21	3.28 ± 0.24	3.17 ± 0.23	3.0051 ± 2.1e-05	3.26 ± 0.079	3.074 ± 0.02	3.03 ± 0.065
0.12 µg/ml, genetic background: ΔmarA	2.73 ± 0.59	3.75 ± 0.39	3.46 ± 0.14	3.27 ± 1	3.12 ± 0.88	3.16 ± 0.74	2.5 ± 0.64	2.59 ± 0.39
0.12 µg/ml, genetic background: Δrob	2.28 ± 1	2.99 ± 0.036	3.05 ± 0.26	2.9 ± 0.18	2.39 ± 0.22	2.66 ± 0.23	2.84 ± 0.32	2.75 ± 0.37
0.12 µg/ml, genetic background: ΔsoxS	2.78 ± 0.068	3.03 ± 0.75	2.97 ± 0.77	2.46 ± 0.11	2.92 ± 0.27	3.03 ± 0.06	2.95 ± 0.52	2.77 ± 0.41
0.24 µg/ml, genetic background: wild type	2.484 ± 0.0088	2.61 ± 0.17	3.06 ± 0.039	2.86 ± 0.12	2.65 ± 0.054	3.19 ± 0.056	2.87 ± 0.055	2.86 ± 0.17
0.24 µg/ml, genetic background: ΔmarA	2.51 ± 0.34	3.63 ± 0.5	3.09 ± 0.011	2.79 ± 0.95	2.69 ± 0.97	2.94 ± 0.47	2.57 ± 0.71	2.53 ± 0.075
0.24 µg/ml, genetic background: Δrob	2.18 ± 0.58	2.82 ± 0.039	2.98 ± 0.095	2.71 ± 0.47	2.3 ± 0.067	2.57 ± 0.21	2.71 ± 0.29	2.65 ± 0.34
0.24 µg/ml, genetic background: ΔsoxS	2.54 ± 0.026	2.77 ± 0.8	2.89 ± 0.62	2.21 ± 0.029	3.08 ± 0.47	2.92 ± 0.069	2.7 ± 0.64	2.41 ± 0.3
0.48 µg/ml, genetic background: wild type	2.19 ± 0.065	2.14 ± 0.39	2.81 ± 0.39	2.464 ± 0.019	2.57 ± 0.07	2.95 ± 0.052	2.77 ± 0.18	2.55 ± 0.086
0.48 µg/ml, genetic background: ΔmarA	1.88 ± 0.34	2.86 ± 0.59	2.511 ± 0.013	2.31 ± 0.96	2.45 ± 1.1	2.55 ± 0.53	2.16 ± 0.53	1.848 ± 0.0086
0.48 µg/ml, genetic background: Δrob	2.09 ± 0.41	2.249 ± 0.013	2.66 ± 0.054	2.09 ± 0.36	1.95 ± 0.23	2.01 ± 0.13	2.52 ± 0.29	2.31 ± 0.26
0.48 µg/ml, genetic background: ΔsoxS	2.44 ± 0.17	2.55 ± 0.79	2.43 ± 0.24	1.96 ± 0.049	2.41 ± 0.32	2.58 ± 0.097	2.41 ± 0.43	1.98 ± 0.37
1 µg/ml, genetic background: wild type	1.19 ± 0.017	0.673 ± 0.084	1.33 ± 0.3	1.34 ± 0.14	0.974 ± 0.28	1.1 ± 0.05	1.809 ± 0.0084	1.74 ± 0.019
1 µg/ml, genetic background: ΔmarA	0.773 ± 0.036	0.782 ± 0.15	0.43 ± 0.035	1.03 ± 0.71	0.397 ± 0.11	0.833 ± 0.64	1.31 ± 0.3	0.728 ± 0.02
1 µg/ml, genetic background: Δrob	0.661 ± 0.76	0.329 ± 0.14	0.554 ± 0.049	0.787 ± 0.15	0.0986 ± 0.074	0.164 ± 0.2	1.67 ± 0.22	1.24 ± 0.14
1 µg/ml, genetic background: ΔsoxS	1.05 ± 0.029	0.401 ± 0.28	0.605 ± 0.32	0.307 ± 0.1	0.188 ± 0.15	0.159 ± 0.092	0.53 ± 0.053	1.01 ± 0.3
